Measured values reported in paper PMC11087952, “Biochemical characterization of Escherichia coli DnaC variants that alter DnaB helicase loading onto DNA” (The Journal of Biological Chemistry, 2024).
For at least one entry, the source does not settle the construct or the ends of the probe. For some assays here: The comparison behind a weaker result is the experiment's own reference, which may not be listed here. For some assays here: Where a protein sequence is shown, tags need not be part of it.

How the values were obtained:
[1] = target: DnaC 824 N255Y (Escherichia coli) (UniProt P0AEF0); test: fluorescence anisotropy; settings: 5 mM Mg2+, 2 mM ATP, similar to wild-type; 50 mM HEPES-KOH pH 7.5, 125 mM KCl, 10% glycerol, 5 mM MgCl2, 2 mM ATP, 2 mM DTT, 0.1 mg/ml BSA, 10 nM DNA, 0-50 uM DnaC; 37 C 15 min, read at 25 C; recombinant protein; single-stranded DNA
[2] = target: T1, DnaC 811 I184F (Escherichia coli) (UniProt P0AEF0); test: fluorescence anisotropy; settings: 5 mM Mg2+, 2 mM ATP, slightly weakened vs wild-type; 50 mM HEPES-KOH pH 7.5, 125 mM KCl, 10% glycerol, 5 mM MgCl2, 2 mM ATP, 2 mM DTT, 0.1 mg/ml BSA, 10 nM DNA, 0-50 uM DnaC; 37 C 15 min, read at 25 C; recombinant protein; single-stranded DNA
T1 sequence (looked up, limits assumed): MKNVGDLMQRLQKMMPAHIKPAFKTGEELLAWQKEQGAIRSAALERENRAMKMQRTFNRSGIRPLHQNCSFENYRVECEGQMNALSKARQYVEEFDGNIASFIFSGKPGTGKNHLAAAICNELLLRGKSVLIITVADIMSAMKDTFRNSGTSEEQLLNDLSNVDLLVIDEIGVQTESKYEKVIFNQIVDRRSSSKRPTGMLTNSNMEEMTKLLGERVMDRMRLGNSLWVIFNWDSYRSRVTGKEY

Sequence: TTTTTTTTTTTTTTTTTTTT [dT20]
- binding result [1]: binds
- binding result [2]: binds more weakly
